Laboratory results taken from PubChem BioAssay AID504467 (National Center for Advancing Translational Sciences (NCATS), 2011).
Where “and” joins values, the source holds several entries; their conditions need not be identical. Equal values may be shown once. The campaign covered roughly 330,000 compounds. About 7,700 (2.3%) were called active. This list was built around the results that the source calls inconclusive (neither active nor inactive); the mix of calls is not that of the screen. The call rests on the fitted dose curve; in most records, active means well fitted inhibition curve with a large enough effect; inconclusive means small, poorly fitted or top-dose-only effect, or effect the other way; inactive means flat fitted curve, though single readings scatter. A potency beside an inconclusive call is a rough fit, not a confirmed value.

Experiment: qHTS screen for small molecules that inhibit ELG1-dependent DNA repair in human embryonic kidney (HEK293T) cells expressing luciferase-tagged ELG1; further: nearly all actives have a fitted effect of over 55% in size
Conditions: HEK293T ELG1-luciferase reporter, luminescence, 16 h, DNA damage induced by 5-fluorouridine; activity change, negative = inhibition: at 46.1 µM (top of the series)
In short: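 Luminescence from the luciferase reporter, measured 30 min after ONE-Glo reagent at room temperature, was the read-out. Beforehand, 2,000 cells per well were exposed for 16 hr at 37 °C to 5-fluorouridine together with compound or vehicle.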
On the % scale 0 is the no-effect control and ±100 the full control effect; potency means the concentration at half of the fitted maximal effect.

SMILES | Potency | activity change, negative = inhibition
Cc1ccc(/C=C/C(=O)NCc2cccs2)o1 | inconclusive: 29.1 µM [activator, partial curve, poor fit] | –
O=C(NCc1ccccn1)c1cc(-c2ccccc2)on1 | inconclusive: 25.9 µM [activator, single point] | –
COc1ccc(N(CC(=O)Nc2ccc(C)cc2C)S(=O)(=O)c2c(C)n[nH]c2C)cc1 | – | inactive: 3.23%
O=C(O)c1ccccc1NC(=S)NC(=O)c1cccc2ccccc12 | – | inactive: -8.47%
C/C(=N\Nc1ccccn1)c1ccc(N2CCOCC2)cc1 | inconclusive: 20.6 µM [activator, partial curve] | –
CCc1ccc(C(=O)c2cc3ccc(O)cc3oc2=O)cc1 | inconclusive: 14.6 µM [activator, single point] | –
COc1ccccc1C(=O)Nc1sc2c(c1C#N)CCC2 | inconclusive: 4.11 µM [activator, single point] | –
CC(C)OC(=O)/C(C#N)=C/c1ccc(-c2ccc(SC(F)F)cc2)o1 | inconclusive: 23.1 µM [activator, partial curve, poor fit] | –
COc1ccc(NC(=O)Nc2ccc([N+](=O)[O-])cc2)cn1 | – | inactive: 20.8%
O=C(CSCc1cnn(-c2ccccc2)c1-n1cccc1)NCc1ccc2c(c1)OCO2 | inconclusive: 0.13 µM [inhibitor, full curve, poor fit] | –
COc1ccc(S(=O)(=O)N(CC(=O)N2CCN(c3ccccc3OC)CC2)c2ccccc2)cc1 | active: 20.6 µM | –
COc1ccc(F)cc1S(=O)(=O)NCCN1CCOCC1 | – | inactive: 9.95%
COc1cc2ccccc2nn1 | – | inactive: 3.34%
Cc1ccc2c(C)c(C(=O)N(Cc3ccccc3)C3CCS(=O)(=O)C3)oc2c1 (stereo unspecified) | inconclusive: 25.9 µM [inhibitor, single point] | –
O=C1c2cccc3c([N+](=O)[O-])ccc(c23)C(=O)N1c1ccccn1 | inconclusive: 35.5 µM [inhibitor, single point] | –
CCOC(=O)c1oc2ccccc2c1CSc1nnc(-c2ccco2)o1 | inconclusive: 18.4 µM [inhibitor, single point] | –
Cn1c(NCc2cccs2)nc2ccccc21 | inconclusive: 23.1 µM [activator, partial curve] | –
O=C(CSc1nc2ccccc2c(=O)n1-c1ccc(F)c(Cl)c1)Nc1cccc(S(=O)(=O)N2CCOCC2)c1 | – | inactive: -18%
COc1cc(/C=N/NC(=O)NC23CC4CC(CC(C4)C2)C3)ccc1O | – | inactive: 16%
O=c1c2ccccc2nnn1COc1cccc(Cl)c1 | – | inconclusive: 132% [activator]
O=C(O)C1CCCCN1S(=O)(=O)c1ccccc1 (stereo unspecified) | – | inactive: 12.8%
O=C(NC1=NCCS1)c1ccccc1 | inconclusive: 1.3 µM [activator, full curve, poor fit] | –
CCCCCN1C2=NCCN2c2ccccc21 | – | inactive: -11.4%
CCN1C/C(=C/c2ccc(OC)c(O)c2)C(=O)/C(=C/c2ccc(OC)c(O)c2)C1 | inconclusive: 11.6 µM [inhibitor, partial curve, poor fit] | –

SMILES | Potency | activity change, negative = inhibition
CSc1ccc(C2c3[nH]c4ccccc4c3CCN2C(=O)c2cc(C)n(C)n2)cc1 (stereo unspecified) | inconclusive: 4.11 µM [activator, single point] | –
Cc1cc(C)cc(NC(=O)COC(=O)c2cccc(S(=O)(=O)N3CCCCC3)c2)c1 | – | inactive: 1.76%
COc1ccc(CC(=O)Nc2ccc(/C(C)=N/NC(=O)c3ccc(OC)cc3OC)cc2)cc1 | – | inactive: -2.28%
CCN1CCN(Cc2ccc(NC(=O)c3ccc(C)c(NC(=O)C(=O)c4c[nH]c5ccccc45)c3)cc2C(F)(F)F)CC1 | inconclusive: 29.1 µM [inhibitor, single point] and inconclusive: 11.6 µM [inhibitor, single point] | –
CC(=O)Nc1ccc(C(=O)Nc2ccc3c(c2)OCO3)cc1 | inconclusive: 16.4 µM [activator, single point] | –
Cn1c(C(=O)NCC2CCCO2)cc2oc3ccccc3c21 (stereo unspecified) | inconclusive: 3.66 µM [activator, partial curve] | –
CCN(c1ccccc1)S(=O)(=O)c1ccc(OC)c(NC(=O)CCc2nc3ccccc3c(=O)[nH]2)c1 | inconclusive: 25.9 µM [inhibitor, single point] | –
O=C(COC(=O)c1ccco1)Nc1nc2ccc([N+](=O)[O-])cc2s1 | – | inactive: -18.6%
c1ccc(CN2CCN(c3nc(-c4ccccc4)nc4ccccc34)CC2)cc1 | inconclusive: 20.6 µM [inhibitor, single point] | –
Cc1ccccc1C(=O)Nn1cnc2ccccc2c1=O | inconclusive: 23.1 µM [activator, partial curve] | –
COc1cc(/C=N/NC(=O)c2cccnc2)ccc1OS(=O)(=O)c1cc(C)ccc1C | inconclusive: 25.9 µM [inhibitor, partial curve] | –
CCN(CC)CCC(c1ccc2c(c1)OCO2)c1c(O)cc(OC)cc1OC (stereo unspecified) | – | inactive: 0%
Cc1cccc(NS(=O)(=O)c2ccc3c(c2)OCCO3)c1 | inconclusive: 14.6 µM [inhibitor, partial curve, poor fit] | –
O=c1[nH]c(/C=C/c2ccccn2)nc2ccccc12 | inconclusive: 2.31 µM [activator, partial curve] | –
CC(C)c1csc2nc3n(c(=O)c12)CCCCC3 | inconclusive: 23.1 µM [activator, partial curve, poor fit] | –
Cc1ccc(NC(=O)Cn2c(O)c(N=NC(=O)c3cc4ccccc4cc3O)c3ccccc32)cc1 | inconclusive: 32.6 µM [inhibitor, single point] | –
Nc1n[nH]c(N)c1N=Nc1ccccc1F | inconclusive: 14.6 µM [activator, single point] | –
CCOC(=O)C1CCN(C(=O)c2cc(-c3ccncc3)nc3ccccc23)CC1 | inconclusive: 29.1 µM [inhibitor, partial curve, poor fit] | –
O=C(N/N=C/c1cccnc1)c1cc(C2CC2)nc2ccccc12 | – | inactive: 6.2%
COC(=O)CNC(=O)c1c(-c2c(Cl)cccc2Cl)noc1C | – | inactive: 7.62%
COc1cc(C(=O)Nc2nnc(C3=COCCO3)o2)cc(OC)c1OC | – | inactive: 8.42%
C/C(CC(=O)Nc1cc(C)cc(C)c1)=N\NC(=O)c1ccccn1 | inconclusive: 20.6 µM [activator, single point] | –
CCSc1nnc(NC(=O)c2c(-c3ccccc3Cl)noc2C)s1 | inconclusive: 0.291 µM [inhibitor, full curve, poor fit] | –
CC1CN(C(=O)c2cc(S(=O)(=O)N3CCN(c4ccccc4)CC3)ccc2Cl)CC(C)O1 (stereo unspecified) | – | inactive: -14%

SMILES | Potency | activity change, negative = inhibition
Cc1cc(N2Cc3ccccc3C2)ccc1C=O | inconclusive: 25.9 µM [activator, partial curve] | –
O=C(NNC(=O)C1CCCN(S(=O)(=O)c2cccc(F)c2)C1)C1CC1 (stereo unspecified) | – | inactive: 10.2%
CC(C)c1nnc(NC(=O)CCC(=O)NCC2CCCO2)s1 (stereo unspecified) | – | inactive: 6.43%
Cc1nn(Cc2cccc(C(=O)Nc3ccn(Cc4c(F)c(F)cc(F)c4F)n3)c2)c(C)c1[N+](=O)[O-] | active: 20.6 µM | –
Cc1ccc(NC(=O)[C@@H]2CCCN2S(=O)(=O)c2ccc(Cl)cc2)cc1 | – | inactive: -22.4%
CCOC(=O)C1CCN(c2ncnc3c2oc2ccc(Br)cc23)CC1 | – | inactive: 24%
COCCCNC1=C(Cl)C(=O)c2ccccc2C1=O | inconclusive: 29.1 µM [inhibitor, single point] | –
CCCN(CCC)C(=O)C1CCC(CNS(=O)(=O)c2cccc3nsnc23)CC1 (stereo unspecified) | – | inactive: -2.77%
O=C1N/C(=N\c2ccccn2)SC1Cc1ccc(Cl)cc1 (stereo unspecified) | – | inactive: 23.7%
COc1ccc(NC(=O)c2cc(-c3ccccc3Cl)on2)cc1OC | inconclusive: 18.3 µM [activator, partial curve, poor fit] | –
CC1CN(Cc2ccc(Cl)cc2Cl)CC(C)O1 (stereo unspecified) | inconclusive: 20.6 µM [activator, single point] | –
COc1ccc(Cl)cc1C(=O)N(Cc1nc(-c2cccc(C)c2)no1)C(C)C | inconclusive: 23.1 µM [inhibitor, single point] | –
Nc1nnc(Sc2ccc(Cl)cc2[N+](=O)[O-])s1 | inconclusive: 32.6 µM [activator, partial curve, poor fit] | –
COc1ccccc1CNC(=O)c1ccc(Cl)c(S(=O)(=O)N2CCCC2)c1 | inconclusive: 25.9 µM [inhibitor, partial curve] | –
O=C(Cn1nnc2ccccc21)Nc1ccc(Cl)cn1 | inconclusive: 18.3 µM [activator, partial curve, poor fit] | –
Cc1cc(NC(=O)NCc2ccccc2)c(=O)n(Cc2ccccc2F)c1 | inconclusive: 18.3 µM [activator, partial curve, poor fit] | –
CCOC(=O)c1nnc(-c2ccc(C)cc2)nc1Sc1cccc(Cl)c1 | – | inactive: 3.55%
Cc1cc2oc(=O)cc(CN3CCN(S(=O)(=O)c4cccs4)CC3)c2cc1C | inconclusive: 23.1 µM [inhibitor, single point] | –
CCOc1ccc(NC(=NCc2ccc3c(c2)OCO3)SC2CC(=O)N(c3ccc(C(=O)O)cc3)C2=O)cc1 (stereo unspecified) | – | inactive: -1.54%
C/C(=N\Nc1cccc([N+](=O)[O-])c1)c1ccccc1O | inconclusive: 23.1 µM [activator, partial curve] | –
O=C(/C=C\c1ccco1)c1ccc(NC(=O)c2ccco2)cc1 | inconclusive: 16.4 µM [activator, partial curve] | –
O=C(NC1C2CC3CC(C2)CC1C3)c1ccc2c(c1)OCO2 (stereo unspecified) | inconclusive: 18.3 µM [activator, single point] | –
Cc1ccc2c(c1)cc(CN(CCc1ccccc1)C(=O)N1CCOCC1)c1nnnn12 | inconclusive: 29.1 µM [inhibitor, single point] | –
